Here are results for 2 molecules from article PMC9483092.

Sequences of proteins named here, by UniProt entry; tags and fusion partners are left off. A change or cut given only in a name is not applied to a line headed by its entry. A line that says so, or that is headed by a name, gives the form on record, which may keep a tag or linker.
DYK-tagged transmembrane serine protease 13 (TMPRSS13) stably expressed in HEK cells (HEK-T) (Q9BYE2-6, form named): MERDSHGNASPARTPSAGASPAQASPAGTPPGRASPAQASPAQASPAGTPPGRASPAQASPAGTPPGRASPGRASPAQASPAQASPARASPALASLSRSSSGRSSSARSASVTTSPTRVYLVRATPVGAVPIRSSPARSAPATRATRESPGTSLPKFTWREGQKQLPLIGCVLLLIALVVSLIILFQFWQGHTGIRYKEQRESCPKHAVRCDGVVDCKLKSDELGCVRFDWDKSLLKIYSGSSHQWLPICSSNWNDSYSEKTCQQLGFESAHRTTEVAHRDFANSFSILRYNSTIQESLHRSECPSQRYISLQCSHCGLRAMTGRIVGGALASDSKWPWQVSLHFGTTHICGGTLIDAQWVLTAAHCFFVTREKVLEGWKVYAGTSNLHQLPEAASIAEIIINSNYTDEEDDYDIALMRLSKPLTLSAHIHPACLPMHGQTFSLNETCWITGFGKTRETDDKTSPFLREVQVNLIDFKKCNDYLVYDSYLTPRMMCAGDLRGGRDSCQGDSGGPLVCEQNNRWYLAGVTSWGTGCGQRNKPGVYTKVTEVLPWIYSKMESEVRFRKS

No constants are given. Whether binding was seen depends on the method and setting. In cells and extracts the contact can be indirect. Some results given as binding are weak or reduced against the parent protein; the word gives no strength. Tags and fused reporters may be left off the sequences shown.

Assay [1] has as its target T1, Myc-tagged recombinant human IL4I1 from inducible HEK cells (concentrated conditioned PBS) (human) (UniProt Q96RQ9).
T1 sequence: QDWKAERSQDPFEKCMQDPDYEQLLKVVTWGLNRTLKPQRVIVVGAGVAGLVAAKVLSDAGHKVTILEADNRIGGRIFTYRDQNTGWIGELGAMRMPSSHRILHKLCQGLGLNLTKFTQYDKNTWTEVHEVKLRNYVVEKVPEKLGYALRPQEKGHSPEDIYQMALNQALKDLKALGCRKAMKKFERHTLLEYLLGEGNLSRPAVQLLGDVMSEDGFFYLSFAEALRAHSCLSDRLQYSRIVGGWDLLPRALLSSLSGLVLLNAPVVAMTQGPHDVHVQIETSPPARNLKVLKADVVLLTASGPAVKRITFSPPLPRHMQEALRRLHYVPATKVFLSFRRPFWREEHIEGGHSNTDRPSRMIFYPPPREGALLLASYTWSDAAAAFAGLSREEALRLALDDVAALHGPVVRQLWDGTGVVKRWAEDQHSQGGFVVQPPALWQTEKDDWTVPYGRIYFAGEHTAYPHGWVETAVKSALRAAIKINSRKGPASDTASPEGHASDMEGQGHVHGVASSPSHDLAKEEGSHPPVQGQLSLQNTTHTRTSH
The assay is described as follows: co-IP; HEK or HEK-T cells incubated 1 h on ice with concentrated Myc-tagged IL4I1 (10000 U/well), 10 washes, lysed (50 mM Tris HCl pH 7.5, 150 mM NaCl, 2 mM EDTA, 0.5% Triton X100); precipitated with anti-DYK (TMPRSS13) or, in reverse, with anti-IL4I1 antibodies; western blot.

In assay [2] the target is DYK-tagged transmembrane serine protease 13 (TMPRSS13) stably expressed in HEK cells (HEK-T) (human) (UniProt Q9BYE2). The assay is described as above.

For “DYK-tagged transmembrane serine protease 13 (TMPRSS13) stably expressed in HEK cells (HEK-T) (from UniProt Q9BYE2-6 1-567) (enzyme)”, in assay [1], the binding entry is given as “binds”.

B1: Myc-tagged recombinant human IL4I1 from inducible HEK cells (concentrated conditioned PBS) (enzyme, UniProt Q96RQ9-1 22-567)
chain: T1 sequence
B1: the binding result in assay [2] is listed as “binds”.
